Results on seven molecules are retold here after paper PMC12011273.

By UniProt entry, the sequences of proteins in these tests, tags left out.
UniProt Q92841: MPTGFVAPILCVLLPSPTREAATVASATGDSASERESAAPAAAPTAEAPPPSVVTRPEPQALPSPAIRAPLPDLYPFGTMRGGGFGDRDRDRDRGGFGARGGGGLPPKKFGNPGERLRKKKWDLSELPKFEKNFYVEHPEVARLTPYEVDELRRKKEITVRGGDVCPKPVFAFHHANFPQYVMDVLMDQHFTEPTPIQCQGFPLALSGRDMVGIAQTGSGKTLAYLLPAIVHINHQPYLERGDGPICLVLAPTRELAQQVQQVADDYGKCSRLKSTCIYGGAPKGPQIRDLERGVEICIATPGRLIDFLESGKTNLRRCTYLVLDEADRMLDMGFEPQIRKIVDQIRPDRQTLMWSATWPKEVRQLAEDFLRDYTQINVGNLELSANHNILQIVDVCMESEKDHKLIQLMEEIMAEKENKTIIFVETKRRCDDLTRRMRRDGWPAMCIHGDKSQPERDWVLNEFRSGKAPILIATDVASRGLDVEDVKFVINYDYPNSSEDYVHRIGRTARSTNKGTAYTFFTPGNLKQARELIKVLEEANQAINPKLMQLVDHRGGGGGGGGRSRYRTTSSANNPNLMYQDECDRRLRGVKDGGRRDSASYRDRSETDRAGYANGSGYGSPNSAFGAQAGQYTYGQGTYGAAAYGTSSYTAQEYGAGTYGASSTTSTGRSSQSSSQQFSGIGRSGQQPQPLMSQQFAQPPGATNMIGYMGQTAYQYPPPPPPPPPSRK
UniProt P17844: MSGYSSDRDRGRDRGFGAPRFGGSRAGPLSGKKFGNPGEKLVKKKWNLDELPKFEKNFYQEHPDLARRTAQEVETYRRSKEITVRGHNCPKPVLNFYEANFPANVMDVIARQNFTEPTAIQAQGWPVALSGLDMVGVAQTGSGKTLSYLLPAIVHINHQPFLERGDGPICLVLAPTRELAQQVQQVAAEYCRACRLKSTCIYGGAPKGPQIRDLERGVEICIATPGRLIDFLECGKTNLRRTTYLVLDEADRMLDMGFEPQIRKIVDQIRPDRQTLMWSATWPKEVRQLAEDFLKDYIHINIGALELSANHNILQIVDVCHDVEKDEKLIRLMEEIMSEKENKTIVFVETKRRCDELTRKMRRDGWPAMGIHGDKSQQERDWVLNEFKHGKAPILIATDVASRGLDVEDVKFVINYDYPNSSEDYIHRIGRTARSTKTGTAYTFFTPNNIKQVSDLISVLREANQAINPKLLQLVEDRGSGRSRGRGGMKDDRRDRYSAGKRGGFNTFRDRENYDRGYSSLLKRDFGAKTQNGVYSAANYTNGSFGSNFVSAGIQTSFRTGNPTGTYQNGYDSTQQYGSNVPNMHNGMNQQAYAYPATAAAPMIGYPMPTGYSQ

Read-outs that look alike come from different tables or passages of the source. Results are given in words; binding and its absence hold for the method and conditions named. Binding seen in cells or lysates may run through a third protein. Some binding calls cover weakened binding; strength is not graded here. For some assays here: Where a sequence is shown, tags or fusion partners need not be part of it.

Assay [1] has as its target T1, 3X-FLAG tagged EBV BGLF4 (Epstein-Barr virus (EBV)) (UniProt P13288).
T1 sequence: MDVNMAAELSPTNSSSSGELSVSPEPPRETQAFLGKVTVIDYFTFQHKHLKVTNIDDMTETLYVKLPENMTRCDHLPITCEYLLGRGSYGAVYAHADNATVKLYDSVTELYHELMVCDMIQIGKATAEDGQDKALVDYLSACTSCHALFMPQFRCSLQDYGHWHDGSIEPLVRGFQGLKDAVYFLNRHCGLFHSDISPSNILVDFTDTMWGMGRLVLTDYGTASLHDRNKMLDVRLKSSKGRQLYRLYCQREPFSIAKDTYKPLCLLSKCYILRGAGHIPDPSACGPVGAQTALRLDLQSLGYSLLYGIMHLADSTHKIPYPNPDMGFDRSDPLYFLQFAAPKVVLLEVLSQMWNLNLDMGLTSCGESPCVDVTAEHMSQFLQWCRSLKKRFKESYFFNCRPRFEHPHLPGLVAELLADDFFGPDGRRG
Kind of assay: co-IP; HEK293T cells co-transfected with tagged proteins (two or three together), harvested 48 or 72 h post transfection in RIPA buffer; anti-V5, anti-HA, anti-myc or anti-FLAG beads, overnight; four washes with RIPA; eluted with competitive peptide and with Laemmli buffer; Western blot. On the technique in general: Immunoblotting shows a protein as a band on a membrane.

In assay [2] the target is myc-tagged DDX17 (human) (UniProt Q92841). The assay is described as above.
For assay [3], the target named is T2, V5-tagged KSHV viral serine/threonine protein kinase (vPK), encoded by ORF36 (Kaposi's sarcoma-associated herpesvirus (KSHV)) (UniProt F5HGH5).
T2 sequence: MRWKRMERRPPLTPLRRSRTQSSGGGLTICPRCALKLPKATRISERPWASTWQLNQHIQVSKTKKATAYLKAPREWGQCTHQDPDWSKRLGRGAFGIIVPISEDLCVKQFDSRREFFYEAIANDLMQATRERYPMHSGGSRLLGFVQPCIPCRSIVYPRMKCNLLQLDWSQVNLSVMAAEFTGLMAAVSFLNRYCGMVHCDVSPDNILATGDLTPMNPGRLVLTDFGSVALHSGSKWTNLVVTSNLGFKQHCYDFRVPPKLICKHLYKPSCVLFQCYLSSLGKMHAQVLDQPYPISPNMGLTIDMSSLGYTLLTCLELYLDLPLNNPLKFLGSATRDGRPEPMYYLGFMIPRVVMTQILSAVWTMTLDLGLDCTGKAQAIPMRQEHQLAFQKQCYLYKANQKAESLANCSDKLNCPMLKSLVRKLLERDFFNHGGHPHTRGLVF
Described as above.

In assay [4] the target is T3, V5-tagged KSHV vPK expressed in KSHV-infected cells (Kaposi's sarcoma-associated herpesvirus (KSHV)) (UniProt F5HGH5).
T3 sequence: T2 sequence
Kind of assay: co-IP; V5-vPK transfected into iSLK.219 and 293T.219 cells latently infected with KSHV, lytic reactivation induced; IP with anti-V5 agarose; blot for endogenous DDX5 and DDX17 (n=1).

Assay [5] has as its target HA-tagged DDX5 (human) (UniProt P17844). Kind of assay: co-IP; HEK293T cells co-transfected with tagged proteins (two or three together), harvested 48 or 72 h post transfection in RIPA buffer; anti-V5, anti-HA, anti-myc or anti-FLAG beads, overnight; four washes with RIPA; eluted with competitive peptide and with Laemmli buffer; Western blot.
Assay [6] has the same target. Described as above. This is another data set of the same source.
The target in assay [7] is myc-tagged DDX17 (human) (UniProt Q92841). The assay is described as above. The source holds these as a separate data set.
Assay [8] deals with myc-tagged DDX5 (human) (UniProt P17844). The description is as above.

Regarding “HA-tagged DDX5 (from UniProt P17844 1-614)”, the binding entry in assay [1], in assay [2] and in assay [3] was “binds” throughout.

Take “endogenous DDX5 (from UniProt P17844 1-614)”: the binding result in assay [4] is on record as “binds”.

As for “endogenous DDX17 (from UniProt Q92841 1-729)”, the binding entry in assay [4] was “binds”.

In the case of “myc-tagged DDX5 (from UniProt P17844 1-614)”, the binding entry in assay [3] is reported as “binds”.

As for “myc-tagged DDX17 (from UniProt Q92841 1-729)”, the binding entry in assay [5], in assay [1] and in assay [3] was “binds” throughout.

B1: 3X-FLAG tagged EBV BGLF4 (protein, UniProt P13288 1-429)
chain: T1 sequence
As for B1, the binding result in assay [6] and in assay [7] was “binds” each time.

B2: V5-tagged KSHV viral serine/threonine protein kinase (vPK), encoded by ORF36 (protein, UniProt F5HGH5 1-444)
chain: T2 sequence
As to B2, the binding result in assay [6], in assay [7] and in assay [8] was “binds” throughout.
